# Key:
# [1] = tested on: L. infantum promastigotes; experiment: Leishmanicidal activity against L. infantum promastigotes (MTT assay); assay type: cell-based, Leishmania infantum; details: ratio CC50 in macrophages / IC50 of L. infantum parasites
# Method: (§1) Promastigotes. L. major (clone VI, MHOM/IL/80) and L. infantum (clone, BCN-150) parasites were cultured at 26 °C under continuous shaking in M199 1× medium (Sigma, St. Louis, MO, USA) supplemented with heat-inactivated fetal bovine serum (FBS), 25 mM HEPES (pH 7), 0.1 mM adenine, 0.0005% (w/v) haemin, […], 0.0005% (w/v) biotin, 100 IU/mL penicillin and […]. For each experiment, the culture medium was changed everyday in order to achieve parasite in exponential growth phase.
# (§2) In order to determine the leishmanicidal activity of the compounds obtained in this study, promastigotes of L. major and L. infantum strains were seeded in 96-well plates (3 ×·10^6 parasite/mL) in exponential growth phase at increasing concentrations (1–500 μM) of the compounds and maintained at 26 °C. After 48 h of incubation, the IC50 was determined by MTT assay. The absorbance was measured in a MultiskanEX photometric plate reader for microplates at 540 nm. Data were obtained from three independent experiments performed in triplicate.
# L. major promastigotes = experiment: Leishmanicidal activity against L. major promastigotes (MTT assay); assay type: cell-based, Leishmania major; details: ratio CC50 in macrophages / IC50 of L. major parasites
# Method: as §1, §2
Structure (SMILES),SI L. infantum [1],SI L. major (L. major promastigotes)
"CCCCCCC(=O)[Se]CC(=O)O [A4, 2-(heptanoylselanyl)acetic acid]",6,3
"O=C(O)C[Se]C(=O)C1CC1 [A5, 2-((cyclopropanecarbonyl)selanyl)acetic acid]",9,2
"O=C(O)C[Se]C(=O)C1CCC1 [A6, 2-((cyclobutanecarbonyl)selanyl)acetic acid]",11,3
"O=C(O)C[Se]C(=O)C1CCCCC1 [A8, 2-((cyclohexanecarbonyl)selanyl)acetic acid]",–,2

# Reference: publication PMC10420963, “Exploring Novel Drug Combinations: The Therapeutic Potential of Selanyl Derivatives for Leishmania Treatment” (Molecules, 2023)
